{"source": "PubChem BioAssay AID504774 | Drosophila RNAi Screening Center | 2011", "purpose": "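Genes required for cells to withstand methyl methanesulphonate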 (primary screen)", "cells": "Drosophila Kc167 cells", "reagents": "long dsRNA against Drosophila genes, about 0.25 µg dsRNA per well", "duration": "about 6 days: 3 days knock-down, then 3 days with or without MMS", "challenge": "methyl methanesulphonate 0.004% (w/v) for 3 days after knock-down", "measured": "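ATP-dependent luminescence as a measure of live cells in MMS-exposed wells, quantile normalised within each plate, with replicate values also given as a mean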", "reading the numbers": "mean viability with MMS: higher = more surviving cells after MMS", "note": "The deposit covers about 23,000 reagents; this is a random part of those that have a named target and a result. 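Values are quantile-normalised luminescence on an arbitrary scale; higher means more cells surviving MMS.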 The numbers tell different reagents against one gene apart. Not all columns of the deposit are shown."}
{"Gene": "Map205 (GeneID 43765)", "reagent": 1, "mean viability with MMS": 3.36e6}
{"Gene": "LSm7 (GeneID 35003)", "reagent": 1, "mean viability with MMS": 3.44e6}
{"Gene": "fwd (GeneID 45374)", "reagent": 1, "mean viability with MMS": 3.52e6}
{"Gene": "CG4438 (GeneID 34257)", "reagent": 1, "mean viability with MMS": 3.88e6}
{"Gene": "Polr2I (GeneID 41741)", "reagent": 1, "mean viability with MMS": 2.79e6}
{"Gene": "CG3823 (GeneID 31573)", "reagent": 1, "mean viability with MMS": 3.53e6}
{"Gene": "CG10237 (GeneID 35222)", "reagent": 1, "mean viability with MMS": 3.79e6}
{"Gene": "CG3548 (GeneID 37932)", "reagent": 1, "mean viability with MMS": 3.53e6}
{"Gene": "CG5302 (retired record) (GeneID 41898)", "reagent": 1, "mean viability with MMS": 3.70e6}
{"Gene": "CG5302 (retired record) (GeneID 41898)", "reagent": 2, "mean viability with MMS": 3.78e6}
{"Gene": "CG5302 (retired record) (GeneID 41898)", "reagent": 3, "mean viability with MMS": 3.53e6}
{"Gene": "CG15239 (GeneID 31343)", "reagent": 1, "mean viability with MMS": 3.58e6}
{"Gene": "Cp110 (GeneID 33136)", "reagent": 1, "mean viability with MMS": 3.59e6}
{"Gene": "Cp110 (GeneID 33136)", "reagent": 2, "mean viability with MMS": 3.40e6}
